From the supplement of paper PMC8728848
This is one part of the list.

What was measured:
Experiment in all cases: glycan array binding signal (z-score within array); higher = stronger binding
Details in all cases: glycan notation: IUPAC condensed, linker removed
[1] = target: Man(a1-2)Man(a1-3)[Man(a1-2)Man(a1-6)]Man
In short: (§1)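 The binding signal is a Z-score computed within each array. Data were drawn from 3228 arrays in the Consortium for Functional Glycomics database, restricted to those with a known protein sequence. Scores were averaged over arrays of the same protein sequence at different concentrations or buffers, and over linkers, and negative values can be taken as non-binding.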

[2] = target: Man(a1-2)Man(a1-3)[Man(a1-2)Man(a1-6)]Man(a1-6)[Man(a1-2)Man(a1-2)Man(a1-3)]Man
In short: as §1

[3] = target: Man(a1-2)Man(a1-3)[Man(a1-2)Man(a1-6)]Man(a1-6)[Man(a1-2)Man(a1-2)Man(a1-3)]Man(b1-4)GlcNAc(b1-4)GlcNAc
In short: as §1

[4] = target: Man(a1-2)Man(a1-3)[Man(a1-6)]Man(a1-6)[Man(a1-2)Man(a1-3)]Man(b1-4)GlcNAc(b1-4)GlcNAc
In short: as §1

[5] = target: Man(a1-2)Man(a1-6)[Man(a1-3)]Man(a1-6)[Man(a1-2)Man(a1-2)Man(a1-3)]Man
In short: as §1

[6] = target: Man(a1-2)Man(a1-6)[Man(a1-3)]Man(a1-6)[Man(a1-2)Man(a1-2)Man(a1-3)]Man(b1-4)GlcNAc(b1-4)GlcNAc
In short: as §1

Man(a1-3)[Man(a1-6)]Man = target: Man(a1-3)[Man(a1-6)]Man
In short: as §1

[7] = target: Man(a1-3)[Man(a1-6)]Man(a1-6)[Man(a1-2)Man(a1-3)]Man(b1-4)GlcNAc(b1-4)GlcNAc
In short: as §1

[8] = target: Man(a1-3)[Man(a1-6)]Man(a1-6)[Man(a1-3)]Man
In short: as §1

[9] = target: Man(a1-3)[Man(a1-6)]Man(a1-6)[Man(a1-3)]Man(b1-4)GlcNAc(b1-4)GlcNAc
In short: as §1

[10] = target: Man(a1-3)[Man(a1-6)]Man(b1-4)GlcNAc(b1-4)GlcNAc
In short: as §1

[11] = target: Man(a1-3)[Man(a1-6)]Man(b1-4)GlcNAc(b1-4)[Fuc(a1-6)]GlcNAc
In short: as §1

Man(a1-6)Man = target: Man(a1-6)Man
In short: as §1

Man(b1-4)GlcNAc = target: Man(b1-4)GlcNAc
In short: as §1

MurNAc(b1-4)GlcNAc = target: MurNAc(b1-4)GlcNAc
In short: as §1

Neu5Ac(a2-3)Gal = target: Neu5Ac(a2-3)Gal
In short: as §1

[12] = target: Neu5Ac(a2-3)Gal(b1-3)GalNAc
In short: as §1

[13] = target: Neu5Ac(a2-3)Gal(b1-3)GalNAc(b1-3)Gal(a1-4)Gal(b1-4)Glc
In short: as §1

[14] = target: Neu5Ac(a2-3)Gal(b1-3)GalNAc(b1-4)Gal(b1-4)Glc
In short: as §1

[15] = target: Neu5Ac(a2-3)Gal(b1-3)GalNAc(b1-4)[Neu5Ac(a2-3)]Gal(b1-4)Glc
In short: as §1

[16] = target: Neu5Ac(a2-3)Gal(b1-3)GalNAc(b1-4)[Neu5Ac(a2-8)Neu5Ac(a2-3)]Gal(b1-4)Glc
In short: as §1

[17] = target: Neu5Ac(a2-3)Gal(b1-3)GalNAc6S
In short: as §1

[18] = target: Neu5Ac(a2-3)Gal(b1-3)GlcNAc
In short: as §1

[19] = target: Neu5Ac(a2-3)Gal(b1-3)GlcNAc(b1-2)Man
In short: as §1

[20] = target: Neu5Ac(a2-3)Gal(b1-3)GlcNAc(b1-2)Man(a1-3)[GlcNAc(b1-4)][Neu5Ac(a2-3)Gal(b1-3)GlcNAc(b1-2)Man(a1-6)]Man(b1-4)GlcNAc(b1-4)GlcNAc
In short: as §1

[21] = target: Neu5Ac(a2-3)Gal(b1-3)GlcNAc(b1-2)Man(a1-3)[Neu5Ac(a2-3)Gal(b1-3)GlcNAc(b1-2)Man(a1-6)]Man(b1-4)GlcNAc(b1-4)GlcNAc
In short: as §1

[22] = target: Neu5Ac(a2-3)Gal(b1-3)GlcNAc(b1-2)[Neu5Ac(a2-3)Gal(b1-3)GlcNAc(b1-4)]Man(a1-6)[Neu5Ac(a2-3)Gal(b1-3)GlcNAc(b1-2)Man(a1-3)]Man(b1-4)GlcNAc(b1-4)GlcNAc
In short: as §1

[23] = target: Neu5Ac(a2-3)Gal(b1-3)GlcNAc(b1-3)Gal(b1-3)GlcNAc
In short: as §1

[24] = target: Neu5Ac(a2-3)Gal(b1-3)GlcNAc(b1-3)Gal(b1-4)GlcNAc
In short: as §1

[25] = target: Neu5Ac(a2-3)Gal(b1-3)GlcNAc(b1-3)GalNAc
In short: as §1

[26] = target: Neu5Ac(a2-3)Gal(b1-3)GlcNAc(b1-6)GalNAc
In short: as §1

[27] = target: Neu5Ac(a2-3)Gal(b1-3)GlcNAc6S
In short: as §1

[28] = target: Neu5Ac(a2-3)Gal(b1-3)[Fuc(a1-4)]GlcNAc
In short: as §1

[29] = target: Neu5Ac(a2-3)Gal(b1-3)[Fuc(a1-4)]GlcNAc(b1-3)Gal(b1-3)[Fuc(a1-4)]GlcNAc
In short: as §1

[30] = target: Neu5Ac(a2-3)Gal(b1-3)[Fuc(a1-4)]GlcNAc(b1-3)Gal(b1-4)[Fuc(a1-3)]GlcNAc
In short: as §1

[31] = target: Neu5Ac(a2-3)Gal(b1-3)[GlcNAc(b1-6)]GalNAc
In short: as §1

[32] = target: Neu5Ac(a2-3)Gal(b1-3)[Neu5Ac(a2-6)]GalNAc
In short: as §1

B1: RsaA-N-term (Caulobacter crescentus), P35828 (protein)
chain: MAYTTAQLVTAYTNANLGKAPDAATTLTLDAYATQTQTGGLSDAAALTNTLKLVNSTTAVAIQTYQFFTGVAPSAAGLDFLVDSTTNTNDLNDAYYSKFAQENRFINFSINLATGAGAGATAFAAAYTGVSYAQTVATAYDKIIGNAVATAAGVDVAAAVAFLSRQANIDYLTAFVRANTPFTAAADIDLAVKAALIGTILNAATVSGIGGYATATAAMINDLSDGALSTDNAAGVNLFTAYPSSGVSGSTLSLTTGTDTLTGTANNDTFVAGEVAGDGSGWSHPQFEKGG
B1 was tested, and the “glycan array binding signal (z-score)” value [1] was -0.209, the “glycan array binding signal (z-score)” value [2] was -0.494 and the “glycan array binding signal (z-score)” value [3] was -0.244. For the same binder, the “glycan array binding signal (z-score)” value [4] was -0.886, the “glycan array binding signal (z-score)” value [5] was -0.583 and the “glycan array binding signal (z-score)” value [6] was 1.66. The “glycan array binding signal (z-score)” value (Man(a1-3)[Man(a1-6)]Man) was 2.01, the “glycan array binding signal (z-score)” value [7] was 1.32 and the “glycan array binding signal (z-score)” value [8] was 0.507. The “glycan array binding signal (z-score)” value [9] was -0.766, the “glycan array binding signal (z-score)” value [10] was 0.174 and the “glycan array binding signal (z-score)” value [11] was 0.545. The “glycan array binding signal (z-score)” value (Man(a1-6)Man) was -1.01, the “glycan array binding signal (z-score)” value (Man(b1-4)GlcNAc) was -0.454 and the “glycan array binding signal (z-score)” value (MurNAc(b1-4)GlcNAc) was -0.701. For the same binder, the “glycan array binding signal (z-score)” value (Neu5Ac(a2-3)Gal) was -0.241, the “glycan array binding signal (z-score)” value [12] was 0.562 and the “glycan array binding signal (z-score)” value [13] was -0.592. For the same binder, the “glycan array binding signal (z-score)” value [14] was -1.34, the “glycan array binding signal (z-score)” value [15] was -1.29 and the “glycan array binding signal (z-score)” value [16] was -0.481. The “glycan array binding signal (z-score)” value [17] was 0.427, the “glycan array binding signal (z-score)” value [18] was 0.45 and the “glycan array binding signal (z-score)” value [19] was -0.377. For the same binder, the “glycan array binding signal (z-score)” value [20] was -0.59, the “glycan array binding signal (z-score)” value [21] was 7.19 and the “glycan array binding signal (z-score)” value [22] was 0.029. The “glycan array binding signal (z-score)” value [23] was -0.798, the “glycan array binding signal (z-score)” value [24] was 0.761 and the “glycan array binding signal (z-score)” value [25] was 0.063. For the same binder, the “glycan array binding signal (z-score)” value [26] was -0.323, the “glycan array binding signal (z-score)” value [27] was 0.141 and the “glycan array binding signal (z-score)” value [28] was 0.624. For the same binder, the “glycan array binding signal (z-score)” value [29] was 0.539, the “glycan array binding signal (z-score)” value [30] was 0.553 and the “glycan array binding signal (z-score)” value [31] was -1.21. For the same binder, the “glycan array binding signal (z-score)” value [32] was -0.716.
